Test results taken from the supplement of paper PMC12823440, “Inhibitors supercharge kinase turnover through native proteolytic circuits” (Nature, 2025).
Structures can show the parent of a compound that is named as a salt. The list shows a part of the results. Hit calls seldom repeat between salt and free forms of one compound.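 Kinases were expressed as nanoluciferase fusions in K562 cells and luminescence was read every 4 h between 2 and 18 h as percent of control, DMSO set to 100% and a positive control to 0%. A time point counts as decreased when the signal drops significantly (2 sigma). The hit call is the authors' own, does not follow from the count of time points alone, and its rule is not shown.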

Protein sequences, listed by entry. Tags and fused reporters are not part of them. Lines headed by an entry give the natural chain unless they say otherwise; changes in a name come on top.
UniProt P36888, whole entry: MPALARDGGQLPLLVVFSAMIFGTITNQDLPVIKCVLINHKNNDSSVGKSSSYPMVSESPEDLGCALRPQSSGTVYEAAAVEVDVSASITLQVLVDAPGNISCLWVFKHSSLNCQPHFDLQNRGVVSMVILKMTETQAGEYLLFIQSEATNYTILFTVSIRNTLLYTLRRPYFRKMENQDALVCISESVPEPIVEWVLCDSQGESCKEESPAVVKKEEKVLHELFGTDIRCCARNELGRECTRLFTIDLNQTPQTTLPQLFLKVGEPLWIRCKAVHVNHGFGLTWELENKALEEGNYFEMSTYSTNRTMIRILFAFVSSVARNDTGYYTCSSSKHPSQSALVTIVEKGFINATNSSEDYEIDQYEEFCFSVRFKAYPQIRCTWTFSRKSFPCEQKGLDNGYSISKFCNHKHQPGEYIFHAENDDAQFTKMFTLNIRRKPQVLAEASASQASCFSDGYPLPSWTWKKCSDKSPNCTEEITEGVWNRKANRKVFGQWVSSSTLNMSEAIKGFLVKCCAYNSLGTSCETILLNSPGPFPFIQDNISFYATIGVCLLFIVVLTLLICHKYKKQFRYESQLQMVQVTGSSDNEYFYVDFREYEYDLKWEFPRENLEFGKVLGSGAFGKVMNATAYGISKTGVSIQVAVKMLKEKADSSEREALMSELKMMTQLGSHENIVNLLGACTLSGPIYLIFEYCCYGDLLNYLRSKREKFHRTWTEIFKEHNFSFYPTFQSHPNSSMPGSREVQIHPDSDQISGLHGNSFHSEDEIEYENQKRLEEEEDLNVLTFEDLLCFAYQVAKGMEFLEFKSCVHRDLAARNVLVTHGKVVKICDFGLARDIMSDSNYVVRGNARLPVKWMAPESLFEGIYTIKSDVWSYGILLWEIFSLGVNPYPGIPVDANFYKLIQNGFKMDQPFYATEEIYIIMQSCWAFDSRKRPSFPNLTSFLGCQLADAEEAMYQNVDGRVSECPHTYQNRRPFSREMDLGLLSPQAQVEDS
UniProt P06241, whole entry, looked up: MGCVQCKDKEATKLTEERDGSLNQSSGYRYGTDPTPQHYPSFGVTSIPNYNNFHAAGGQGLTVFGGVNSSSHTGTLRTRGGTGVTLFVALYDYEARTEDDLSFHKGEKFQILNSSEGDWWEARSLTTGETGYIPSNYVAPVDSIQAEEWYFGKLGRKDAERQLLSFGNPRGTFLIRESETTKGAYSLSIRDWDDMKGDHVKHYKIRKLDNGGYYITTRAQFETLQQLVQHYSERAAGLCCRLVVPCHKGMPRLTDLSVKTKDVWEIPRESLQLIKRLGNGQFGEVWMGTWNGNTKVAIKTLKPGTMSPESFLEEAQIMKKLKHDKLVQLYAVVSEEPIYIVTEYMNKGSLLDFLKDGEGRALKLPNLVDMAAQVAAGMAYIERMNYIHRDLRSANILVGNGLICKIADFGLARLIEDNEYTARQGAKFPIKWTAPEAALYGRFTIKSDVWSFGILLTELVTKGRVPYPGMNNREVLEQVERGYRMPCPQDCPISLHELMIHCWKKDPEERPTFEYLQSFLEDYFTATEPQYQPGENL
UniProt P49840: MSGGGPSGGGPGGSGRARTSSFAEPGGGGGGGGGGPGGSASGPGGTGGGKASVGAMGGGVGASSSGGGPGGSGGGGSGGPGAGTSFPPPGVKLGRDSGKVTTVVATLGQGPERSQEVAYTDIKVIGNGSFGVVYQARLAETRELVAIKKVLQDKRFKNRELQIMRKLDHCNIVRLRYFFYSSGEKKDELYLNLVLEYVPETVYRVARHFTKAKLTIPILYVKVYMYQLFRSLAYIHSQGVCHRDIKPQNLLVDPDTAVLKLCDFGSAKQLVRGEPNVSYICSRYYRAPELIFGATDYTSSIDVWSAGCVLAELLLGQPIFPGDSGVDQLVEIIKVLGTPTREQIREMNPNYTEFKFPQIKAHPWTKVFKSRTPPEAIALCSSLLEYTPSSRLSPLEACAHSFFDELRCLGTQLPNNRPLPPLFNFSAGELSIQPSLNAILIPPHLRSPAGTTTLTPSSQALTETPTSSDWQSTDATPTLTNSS
UniProt P14616: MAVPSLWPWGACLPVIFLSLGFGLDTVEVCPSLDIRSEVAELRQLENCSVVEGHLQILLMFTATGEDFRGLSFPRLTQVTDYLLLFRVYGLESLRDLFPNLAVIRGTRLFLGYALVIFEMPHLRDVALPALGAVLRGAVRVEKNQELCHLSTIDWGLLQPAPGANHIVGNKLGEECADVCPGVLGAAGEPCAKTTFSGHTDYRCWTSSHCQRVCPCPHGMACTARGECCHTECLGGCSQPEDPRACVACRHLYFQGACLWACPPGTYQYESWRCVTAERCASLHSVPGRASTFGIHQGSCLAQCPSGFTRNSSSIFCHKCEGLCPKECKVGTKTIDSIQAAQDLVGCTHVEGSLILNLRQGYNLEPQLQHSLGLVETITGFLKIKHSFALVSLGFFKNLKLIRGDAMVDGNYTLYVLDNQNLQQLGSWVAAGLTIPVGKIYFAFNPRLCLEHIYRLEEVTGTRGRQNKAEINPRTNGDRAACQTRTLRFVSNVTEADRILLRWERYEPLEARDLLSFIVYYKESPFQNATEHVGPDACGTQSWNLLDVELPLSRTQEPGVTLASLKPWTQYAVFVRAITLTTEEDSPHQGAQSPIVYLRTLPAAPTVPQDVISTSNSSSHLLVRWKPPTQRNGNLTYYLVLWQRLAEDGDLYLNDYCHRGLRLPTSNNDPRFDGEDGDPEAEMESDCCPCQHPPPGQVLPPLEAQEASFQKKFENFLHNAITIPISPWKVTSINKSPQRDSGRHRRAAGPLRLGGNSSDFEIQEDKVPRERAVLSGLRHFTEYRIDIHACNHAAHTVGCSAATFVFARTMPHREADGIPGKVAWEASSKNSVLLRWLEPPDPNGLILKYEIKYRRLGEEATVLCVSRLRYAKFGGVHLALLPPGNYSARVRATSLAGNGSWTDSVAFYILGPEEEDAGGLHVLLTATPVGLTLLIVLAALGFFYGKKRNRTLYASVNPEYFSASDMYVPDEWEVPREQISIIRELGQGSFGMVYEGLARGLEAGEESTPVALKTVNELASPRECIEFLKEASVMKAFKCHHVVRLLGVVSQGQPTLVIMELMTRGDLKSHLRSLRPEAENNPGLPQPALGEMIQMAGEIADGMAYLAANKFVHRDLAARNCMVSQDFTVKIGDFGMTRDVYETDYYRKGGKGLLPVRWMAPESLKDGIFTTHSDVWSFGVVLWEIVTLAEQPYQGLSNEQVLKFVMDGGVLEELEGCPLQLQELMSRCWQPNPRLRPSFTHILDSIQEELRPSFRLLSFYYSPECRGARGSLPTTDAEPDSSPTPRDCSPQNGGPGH
UniProt P23458: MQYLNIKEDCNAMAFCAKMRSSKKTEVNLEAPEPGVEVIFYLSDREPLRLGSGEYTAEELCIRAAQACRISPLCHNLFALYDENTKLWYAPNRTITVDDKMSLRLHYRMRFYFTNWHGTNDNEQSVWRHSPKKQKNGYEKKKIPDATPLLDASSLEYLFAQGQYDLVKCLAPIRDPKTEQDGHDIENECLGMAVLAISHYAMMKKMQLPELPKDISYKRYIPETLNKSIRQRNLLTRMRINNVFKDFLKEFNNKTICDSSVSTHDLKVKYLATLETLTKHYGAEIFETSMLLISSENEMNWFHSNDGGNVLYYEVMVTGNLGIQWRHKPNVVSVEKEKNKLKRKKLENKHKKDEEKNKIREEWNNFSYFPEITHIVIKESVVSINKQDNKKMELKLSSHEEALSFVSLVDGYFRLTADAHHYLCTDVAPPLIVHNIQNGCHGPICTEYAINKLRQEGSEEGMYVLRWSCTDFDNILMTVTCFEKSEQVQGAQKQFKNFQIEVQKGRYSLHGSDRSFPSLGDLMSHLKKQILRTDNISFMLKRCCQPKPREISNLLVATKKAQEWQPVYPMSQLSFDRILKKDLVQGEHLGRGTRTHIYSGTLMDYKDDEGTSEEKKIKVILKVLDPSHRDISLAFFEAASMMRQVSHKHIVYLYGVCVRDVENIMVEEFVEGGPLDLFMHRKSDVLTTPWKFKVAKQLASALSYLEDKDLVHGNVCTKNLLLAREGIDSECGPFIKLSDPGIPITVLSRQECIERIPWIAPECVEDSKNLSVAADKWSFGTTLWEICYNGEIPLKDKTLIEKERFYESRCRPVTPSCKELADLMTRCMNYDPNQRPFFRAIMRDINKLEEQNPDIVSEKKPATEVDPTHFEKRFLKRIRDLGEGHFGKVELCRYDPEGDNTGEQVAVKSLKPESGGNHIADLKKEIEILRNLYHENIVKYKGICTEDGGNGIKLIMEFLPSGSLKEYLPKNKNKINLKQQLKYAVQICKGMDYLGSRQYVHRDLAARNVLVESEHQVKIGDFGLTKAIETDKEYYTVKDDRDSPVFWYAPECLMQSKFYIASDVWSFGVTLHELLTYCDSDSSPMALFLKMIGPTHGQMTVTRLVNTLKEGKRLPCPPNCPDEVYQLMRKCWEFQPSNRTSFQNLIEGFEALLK
UniProt P06239: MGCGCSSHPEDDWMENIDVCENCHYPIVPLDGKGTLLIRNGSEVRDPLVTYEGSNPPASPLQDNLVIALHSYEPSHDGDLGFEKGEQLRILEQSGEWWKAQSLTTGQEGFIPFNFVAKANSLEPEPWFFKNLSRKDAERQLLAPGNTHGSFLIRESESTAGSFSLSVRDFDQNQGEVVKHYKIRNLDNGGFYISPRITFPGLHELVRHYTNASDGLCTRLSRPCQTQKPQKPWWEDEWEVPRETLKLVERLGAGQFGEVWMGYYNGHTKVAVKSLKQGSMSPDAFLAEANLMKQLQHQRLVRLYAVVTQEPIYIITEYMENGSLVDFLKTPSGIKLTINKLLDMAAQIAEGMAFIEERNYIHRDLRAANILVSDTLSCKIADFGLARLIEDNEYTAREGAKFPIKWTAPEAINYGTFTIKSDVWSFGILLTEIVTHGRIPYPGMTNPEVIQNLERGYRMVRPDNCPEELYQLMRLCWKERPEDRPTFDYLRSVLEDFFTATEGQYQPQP
UniProt P53667: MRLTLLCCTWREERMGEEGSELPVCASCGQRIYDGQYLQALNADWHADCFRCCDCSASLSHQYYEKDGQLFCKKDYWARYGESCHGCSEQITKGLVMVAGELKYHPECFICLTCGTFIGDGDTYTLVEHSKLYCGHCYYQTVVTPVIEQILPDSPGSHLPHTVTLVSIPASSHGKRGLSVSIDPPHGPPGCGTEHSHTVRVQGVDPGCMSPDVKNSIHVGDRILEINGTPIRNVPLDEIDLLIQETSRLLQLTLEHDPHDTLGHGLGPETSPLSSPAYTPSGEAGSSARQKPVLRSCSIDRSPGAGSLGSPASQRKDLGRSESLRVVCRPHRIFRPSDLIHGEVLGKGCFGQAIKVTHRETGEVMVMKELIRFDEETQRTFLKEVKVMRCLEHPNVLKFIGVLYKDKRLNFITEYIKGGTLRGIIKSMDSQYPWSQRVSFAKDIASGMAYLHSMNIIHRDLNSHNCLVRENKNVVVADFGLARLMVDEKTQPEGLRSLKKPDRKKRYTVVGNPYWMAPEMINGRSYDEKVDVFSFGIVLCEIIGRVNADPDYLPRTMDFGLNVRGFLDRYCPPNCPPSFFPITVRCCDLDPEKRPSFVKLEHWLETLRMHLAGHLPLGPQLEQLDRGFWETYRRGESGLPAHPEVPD
UniProt P53671: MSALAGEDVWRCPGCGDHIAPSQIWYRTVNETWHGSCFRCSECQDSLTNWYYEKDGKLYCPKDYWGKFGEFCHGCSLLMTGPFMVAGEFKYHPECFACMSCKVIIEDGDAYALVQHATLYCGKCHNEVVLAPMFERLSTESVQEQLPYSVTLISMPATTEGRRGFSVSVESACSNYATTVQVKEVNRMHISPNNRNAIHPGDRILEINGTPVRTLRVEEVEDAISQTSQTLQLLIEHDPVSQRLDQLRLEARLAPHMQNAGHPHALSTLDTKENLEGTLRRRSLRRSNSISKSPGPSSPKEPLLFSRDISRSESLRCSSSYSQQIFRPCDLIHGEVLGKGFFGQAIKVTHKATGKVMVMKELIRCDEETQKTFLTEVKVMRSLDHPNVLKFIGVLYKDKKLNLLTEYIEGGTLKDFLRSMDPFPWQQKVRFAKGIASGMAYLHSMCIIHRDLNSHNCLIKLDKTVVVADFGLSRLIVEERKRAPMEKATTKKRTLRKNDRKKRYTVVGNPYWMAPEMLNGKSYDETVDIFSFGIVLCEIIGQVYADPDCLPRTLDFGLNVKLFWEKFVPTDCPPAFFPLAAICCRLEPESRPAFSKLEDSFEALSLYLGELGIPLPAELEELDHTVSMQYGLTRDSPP

Key:
Experiment in all cases: number of time points (of 5) at which kinase-Nluc abundance scored as decreased, DMSO-normalised (count); higher = more persistent destabilization
Conditions in all cases: K562; 2-18 h
[1] = target: FLT3 (UniProt P36888)
[2] = target: FYN (UniProt P06241)
[3] = target: GSK3A (UniProt P49840)
[4] = target: HER2 (UniProt P04626)
[5] = target: INSRR (UniProt P14616)
[6] = target: IRAK3 (UniProt Q9Y616)
[7] = target: JAK1 (UniProt P23458)
[8] = target: LCK (UniProt P06239)
[9] = target: LIMK1 (UniProt P53667)
[10] = target: LIMK2 (UniProt P53671)

Measured: number of time points

CC(C)Cn1ncc2cc(Oc3ccc(F)cc3F)c(C(=O)NCCN(C)C)cc21 [p38α inhibitor 1] (10 µM)
0: all assays above

O=C(Nc1ccnc(NC(=O)C2CC2)c1)c1c(Cl)cccc1Cl (10 µM)
1: [6] | [7]
3: [1]
2: [2]
0: all other assays above

CNCc1cc(Oc2ccc3c(ccn3C(=O)Nc3cc(C(F)(F)F)n(C)n3)c2)ncn1 [Acrizanib] (10 µM)
0: all assays above

COCCNc1cc(NC(=O)N2CCCc3cc(CN4CCOCC4=O)c(C=O)nc32)ncc1C#N (10 µM)
0: all assays above

Cn1c(N2CCO[C@@H](c3ccc(F)cc3)C2)nc(-c2ccncn2)cc1=O (10 µM)
0: all assays above

Cc1cnc(Nc2ccc(F)cc2Cl)nc1-c1c[nH]c(C(=O)N[C@H](CO)c2cccc(Cl)c2)c1 (10 µM)
0: all assays above

C[C@@H](NC(=O)c1ncnc(N)c1Cl)c1ncc(C(=O)Nc2cc(C(F)(F)F)c(Cl)cn2)s1 (2.5 µM)
0: [3] | [8]
1: [4] | [10]
2: [2] | [6]
4: [7]
3: all other assays above

COc1cc2nnc(C(N)=O)c(Nc3ccc(C)cc3F)c2cc1N1CCN(CCO)CC1 (2.5 µM)
0: all assays above

CC(C)(Oc1ccc(Cl)cc1)C(=O)Nc1ccc(OCc2ccc(C#N)cc2)cc1 [AMPK activator 4] (10 µM)
0: all assays above

CN(C)C(=O)c1cc2cnc(Nc3ccc(N4CCN(CCCCNC(=O)COc5cccc6c5C(=O)N(C5CCC(=O)NC5=O)C6=O)CC4)cn3)nc2n1C1CCCC1 (stereo not given) (10 µM)
0: all assays above

CS[C@@]1(C(=O)Nc2ccc3[nH]nc(-c4ccc(OC(C)C)nc4)c3c2)CCN(CC(=O)N2CC=C(c3ccc(-c4ncn(C)n4)cc3)CC2)C1 (2.5 µM)
0: all assays above

COc1ccc(CCNCc2ccc(OCc3ccc(Cl)nc3)c(OC)c2)cc1OC [SBE13 (Hydrochloride)] (10 µM)
0: all assays above

CNCCOc1ccccc1C1(Nc2nccn(-c3cc(C(=O)NC4CC4)cc(F)c3C)c2=O)CC1 (10 µM)
0: all assays above

COCCOc1cnc2ccn([C@H](C)c3nnc4c(F)cc(-c5cnn(C)c5)cn34)c(=O)c2c1 (10 µM)
0: all assays above

COc1cc2nccc(Nc3cccc(Oc4ccccc4)c3)c2cc1OC (2.5 µM)
0: all assays above

Cc1cccc(CC(=O)N2CCc3c2ccc(-c2cn(C)c4ncnc(N)c24)c3F)n1 (10 µM)
3: [4]
0: all other assays above

Entries listed so far that have an NH in an aromatic ring (2):
Cc1cnc(Nc2ccc(F)cc2Cl)nc1-c1c[nH]c(C(=O)N[C@H](CO)c2cccc(Cl)c2)c1 (10 µM)
0: all assays above

CS[C@@]1(C(=O)Nc2ccc3[nH]nc(-c4ccc(OC(C)C)nc4)c3c2)CCN(CC(=O)N2CC=C(c3ccc(-c4ncn(C)n4)cc3)CC2)C1 (2.5 µM)
0: all assays above

Additional records.

CO/N=C1/C(c2c(O)[nH]c3cc(Cl)c(Cl)cc23)=Nc2ccccc21 (10 µM)
0: all assays above

CN(C)c1ccc(/C=C2\C(=O)Nc3ccccc32)c2ccccc12 (10 µM)
2: [3]
0: all other assays above

COc1c(O)cc(O)c2c(=O)cc(-c3ccccc3)oc12 [Wogonin] (10 µM)
5: [1]
0: all other assays above

CC(=O)O/N=C1/C(c2c(O)[nH]c3cc(Br)ccc23)=Nc2ccccc21 [BIO-acetoxime] (10 µM)
0: all assays above

C[C@@H]1CN(Cc2ccc(F)cc2)[C@@H](C)CN1C(=O)c1cc2c(C(=O)C(=O)N(C)C)cn(C)c2cc1Cl [Talmapimod] (10 µM)
0: all assays above

CCC(F)(F)c1cc(N2CCC(S(C)(=O)=O)CC2)nc2sc(C(N)=O)c(N)c12 (10 µM)
0: all assays above

C=CC(=O)Nc1cccc(Oc2nc(Nc3ccc(N4CCN(C)CC4)cc3OC)ncc2Cl)c1 (10 µM)
5: [4]
0: all other assays above

Nc1nccc(Oc2ccc3c(C(=O)Nc4cccc(C(F)(F)F)c4)cccc3c2)n1 (10 µM)
1: [1] | [6]
0: all other assays above

Cc1cnc(Cl)nc1-c1ccc(N(Cc2ccc(CNC(=O)C(F)F)cc2)C(=O)c2ccc(O)cc2O)cc1 (10 µM)
0: all assays above

CC1=CC(=O)C(C(C)C)=C/C1=N/OC(=O)c1ccccc1C [Poloxin] (2.5 µM)
0: all assays above

CN(C)c1cc[n+](Cc2ccc(OCCOc3ccc(C[n+]4ccc(N(C)C)cc4)cc3)cc2)cc1 (10 µM)
0: all assays above

CC1(C)CN(C(=O)c2ccc(-c3cccc4nc(NC(=O)C5CC5)nn34)cc2)C1 [Solcitinib] (10 µM)
0: all assays above

CC(ONC(=O)c1cc(C(F)(F)F)cc(C(F)(F)F)c1)C(=O)Nc1ccc(Cl)cc1 (stereo not given) (2.5 µM)
5: [4]
0: all other assays above

Nc1ccc(Sc2nc3ccccc3s2)c(Cl)c1 [KRAS inhibitor-9] (10 µM)
0: all assays above

NC(=O)c1c(NC(=O)C2CC2)sc2c1CCCC2 (10 µM)
0: all assays above

Cc1ccc(Nc2cc(N[C@@H]3CCCC[C@@H]3N)nnc2C(N)=O)nc1C (2 µM)
0: all assays above

O=C1CCC(N2C(=O)c3cccc(OCCCCCOc4ccc(CC(=O)Nc5cc(C6CCC6)[nH]n5)cc4)c3C2=O)C(=O)N1 (stereo not given) [PROTAC CDK9 Degrader-1] (10 µM)
2: [6]
3: [1]
0: all other assays above

Cc1cc(N2CCOCC2)ccc1Nc1nc(NC2CCCCC2)c2[nH]cnc2n1 (10 µM)
0: all assays above

Cc1ncsc1-c1ccc(CNC(=O)[C@@H]2C[C@@H](O)CN2C(=O)[C@@H](NC(=O)COCCOc2ccc(-c3cc(Nc4ccc(OC(F)(F)F)cc4)ncn3)cc2)C(C)(C)C)cc1 (2.5 µM)
4: [1]
0: [3] | [8] | [9]
2: [5] | [6] | [10]
1: all other assays above

O=C(CCl)c1c[nH]c2ccccc12 (2.5 µM)
0: all assays above

N#Cc1cc(N2CCC(C(=O)N3N=CC[C@H]3c3cc(F)cc(F)c3)CC2)ncn1 (10 µM)
0: all assays above
